Laboratory results published in publication PMC8972800.
These are yes or no findings as the source states them, for the method shown. Sequences can lack the tags named with a protein.

Biological target: MSMEG_0317Δ (periplasmic domain of Mycobacterium smegmatis LmcA, MSMEG_0317, residues 30-323) (Mycobacterium smegmatis) (UniProt A0QP93)
Assay: SEC; HiLoad 16/60 Superdex 75; 20 mM Tris pH 7.5, 200 mM NaCl, 5% (v/v) glycerol; calibrated with bovine gamma-globulin (158 kDa), chicken ovalbumin (44 kDa) and equine myoglobin (17 kDa); both purified

B1: MSMEG_0317Δ (periplasmic domain of Mycobacterium smegmatis LmcA, MSMEG_0317, residues 30-323) (domain or fragment, UniProt A0QP93 30-323)
chain: TYTKGKIAKIPLDIDTSLVSDGTATAFDPDSLVAERFKIDRDVPVALQQQMSVEAPSNADVVTFQVGTTLRRTDRQQDAGLLLALVDTVTMNRNTAEAVSSENNPGGAVQKPRAIEDEKPPTNIALPHEGLTYRFPFDTEKKTYPFFDPIAQKAFDANYDGEEDVNGLTTYRFVQNVGYDADGKLADPIKYSSLYEDDADASVTARAEVWGVPGEPDESITMDRFYAASRTFWVDPVSGTIVKSEEHGYQYYAREALKPEVTYVDFKVTTNEESVESQVAAASDERDRIALWTR
B1 was tested, and the binding was “no binding”.
